No constants are given. Whether binding was seen depends on the method and setting. Some results given as binding are weak or reduced against the parent protein; the word gives no strength.
What was measured:
[1] = molecular target: human Notch3 (full-length) (human) (UniProt Q9UM47); test: summary of FMAT and Western blot on domain constructs
[2] = molecular target: human Notch3 (full-length) (human) (UniProt Q9UM47); test: Western blot, denaturing conditions
[3] = molecular target: human Notch3 (full-length) (human) (UniProt Q9UM47); test: cell-based FMAT assay and FACS analysis
[4] = molecular target: Notch3-EGF/Fc fusion protein (human) (UniProt Q9UM47); test: Western blot band intensity, denaturing conditions
[5] = molecular target: human Notch3 (full-length) (human) (UniProt Q9UM47); test: Western blot band intensity, denaturing conditions, full-length Notch3 from transfected cells
[6] = molecular target: human Notch3 (full-length) (human) (UniProt Q9UM47); test: cell-based FMAT assay on cells expressing full-length Notch3
[7] = molecular target: Notch3-EGF/Fc fusion protein (human) (UniProt Q9UM47); test: ELISA, hybridoma supernatant on coated fusion protein

By UniProt entry, the sequences of proteins in these tests, tags left out. Where a name states a change or a piece, a line headed by the entry shows the natural chain unless it says otherwise.
UniProt Q9UM47: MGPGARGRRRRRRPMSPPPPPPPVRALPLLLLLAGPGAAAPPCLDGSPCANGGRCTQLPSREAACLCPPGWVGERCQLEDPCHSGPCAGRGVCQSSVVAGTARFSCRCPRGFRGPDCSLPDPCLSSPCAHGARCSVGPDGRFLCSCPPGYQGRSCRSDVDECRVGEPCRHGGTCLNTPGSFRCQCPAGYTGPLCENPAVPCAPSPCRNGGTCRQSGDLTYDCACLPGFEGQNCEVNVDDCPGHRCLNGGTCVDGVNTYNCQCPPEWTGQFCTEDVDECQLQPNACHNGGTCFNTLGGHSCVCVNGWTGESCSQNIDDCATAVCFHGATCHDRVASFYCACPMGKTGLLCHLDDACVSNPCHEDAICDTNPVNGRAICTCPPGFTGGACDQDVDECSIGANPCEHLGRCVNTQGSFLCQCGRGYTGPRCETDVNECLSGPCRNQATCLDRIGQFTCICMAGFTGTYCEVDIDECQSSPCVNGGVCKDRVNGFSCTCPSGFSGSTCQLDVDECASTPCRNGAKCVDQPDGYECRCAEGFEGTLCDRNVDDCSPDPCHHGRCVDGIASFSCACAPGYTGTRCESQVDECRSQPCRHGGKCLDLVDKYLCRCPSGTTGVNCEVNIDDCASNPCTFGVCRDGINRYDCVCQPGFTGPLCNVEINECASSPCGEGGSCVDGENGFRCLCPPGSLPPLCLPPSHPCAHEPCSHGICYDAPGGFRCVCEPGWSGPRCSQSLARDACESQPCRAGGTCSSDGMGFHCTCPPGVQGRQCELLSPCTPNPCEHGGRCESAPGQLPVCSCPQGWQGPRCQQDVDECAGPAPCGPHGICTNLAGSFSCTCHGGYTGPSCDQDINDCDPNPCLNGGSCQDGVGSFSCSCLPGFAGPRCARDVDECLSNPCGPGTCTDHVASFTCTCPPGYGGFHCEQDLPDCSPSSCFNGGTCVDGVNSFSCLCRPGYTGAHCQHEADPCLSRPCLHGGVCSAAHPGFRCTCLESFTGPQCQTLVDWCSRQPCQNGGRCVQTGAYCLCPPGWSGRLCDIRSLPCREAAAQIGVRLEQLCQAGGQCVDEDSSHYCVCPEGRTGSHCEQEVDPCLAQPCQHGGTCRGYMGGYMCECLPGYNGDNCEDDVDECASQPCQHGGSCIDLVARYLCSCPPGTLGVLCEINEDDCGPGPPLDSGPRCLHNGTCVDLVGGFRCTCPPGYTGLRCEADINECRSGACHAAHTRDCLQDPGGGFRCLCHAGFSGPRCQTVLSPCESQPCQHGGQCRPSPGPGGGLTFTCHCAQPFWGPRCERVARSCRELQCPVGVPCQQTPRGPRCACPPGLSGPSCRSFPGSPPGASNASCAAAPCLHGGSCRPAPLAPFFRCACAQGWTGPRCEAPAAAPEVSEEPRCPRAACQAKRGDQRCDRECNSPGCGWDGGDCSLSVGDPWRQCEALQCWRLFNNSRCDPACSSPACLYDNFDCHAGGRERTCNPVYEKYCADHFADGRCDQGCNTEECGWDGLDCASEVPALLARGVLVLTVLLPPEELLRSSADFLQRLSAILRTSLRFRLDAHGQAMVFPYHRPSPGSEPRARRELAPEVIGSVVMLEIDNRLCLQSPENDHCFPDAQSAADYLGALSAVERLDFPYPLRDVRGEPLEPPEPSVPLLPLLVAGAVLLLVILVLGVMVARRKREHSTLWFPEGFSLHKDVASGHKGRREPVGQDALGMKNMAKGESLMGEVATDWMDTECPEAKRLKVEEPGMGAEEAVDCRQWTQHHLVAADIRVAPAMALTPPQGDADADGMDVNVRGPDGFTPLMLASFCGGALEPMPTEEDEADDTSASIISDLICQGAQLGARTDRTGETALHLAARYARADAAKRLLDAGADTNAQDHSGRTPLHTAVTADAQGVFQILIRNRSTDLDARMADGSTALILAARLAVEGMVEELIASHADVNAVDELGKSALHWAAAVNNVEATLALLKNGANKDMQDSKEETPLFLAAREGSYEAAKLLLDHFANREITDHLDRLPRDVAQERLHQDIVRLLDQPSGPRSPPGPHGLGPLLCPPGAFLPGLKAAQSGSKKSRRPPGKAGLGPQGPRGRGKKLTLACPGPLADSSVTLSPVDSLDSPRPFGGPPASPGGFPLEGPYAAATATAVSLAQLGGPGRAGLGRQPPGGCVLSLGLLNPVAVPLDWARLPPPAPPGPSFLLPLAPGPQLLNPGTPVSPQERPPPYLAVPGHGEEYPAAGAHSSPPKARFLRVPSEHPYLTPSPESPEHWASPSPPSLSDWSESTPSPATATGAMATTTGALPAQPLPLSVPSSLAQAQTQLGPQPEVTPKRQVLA

binding [1]	binding [2]	binding [3]	binding [4]	binding [5]	binding [6]	binding [7]	Binder
binds	binds	binds	binds	binds	binds	binds	anti-Notch 3 monoclonal antibody mAb 255A-71 (antibody, V domains shown, Mouse hybridoma mAb raised against Notch3-EGF/Fc) VH: DVQLQESGPGLVKPSQSLSLTCSVTGYSITSGYYWNWIRQFPGNKLEWMGFISYDGSNNYNPSLKNRISITRDTSKNQFFLKLNSVTTEDTATFYCATLYYDYDGNYFDYWGQGTTLTVSS VL: CDIQMTQTTSSLSASLGDRVTISCRTSQDISNYLNWYQQKPDGTVKLLIYYTSRLHSGVPSRFSGSGSGTDYSLTISNLEQEDIATYFCQQGNALPLTFGPGTKLELKR
binds	–	binds	–	–	binds	binds	anti-Notch 3 monoclonal antibody mAb 255A-77 (antibody, V domains shown, Mouse hybridoma mAb raised against Notch3-EGF/Fc) VH: QVQLQQSGDDLVKPGASVKLSCKASGYTFTSYWINWIKQRPGQGLEWIGHIGPGSGSTYYNEIFKGKATLTVDTSSSTAYIQLSSLSSEDSAVYFCVLTRYFYAMDYWGQGTSVTVSS VL: DIVMTQSPSSLAVTAGEKVTMRCKSSQSLLWSVNQNNYLSWYQQKQGQPPKLLIYGASIRESWVPDRFTGSGSGTDFTLTISNVHVEDLAVYYCQHNHGSFLPLTFGAGTKLELKR

Source: US20080131908A1 (Genentech, published 2008)
